No constants are given. Whether binding was seen depends on the method and setting. Some entries that bind do so weakly or less than the wild type.
Experiments:
[1] = molecular target: recombinant human Siglec-8 extracellular domain (ECD) (human) (UniProt Q9NYZ4); test: ELISA, coated Siglec-8 ECD
[2] = molecular target: Dimeric Siglec-8 (human Siglec-8 ECD protein) (human) (UniProt Q9NYZ4); test: SPR (Biacore), antibody captured, dimeric Siglec-8 as analyte

Amino acid sequences for entries named in this document (tags omitted). Residues count along the entry.
UniProt Q9NYZ4, residues 17-363: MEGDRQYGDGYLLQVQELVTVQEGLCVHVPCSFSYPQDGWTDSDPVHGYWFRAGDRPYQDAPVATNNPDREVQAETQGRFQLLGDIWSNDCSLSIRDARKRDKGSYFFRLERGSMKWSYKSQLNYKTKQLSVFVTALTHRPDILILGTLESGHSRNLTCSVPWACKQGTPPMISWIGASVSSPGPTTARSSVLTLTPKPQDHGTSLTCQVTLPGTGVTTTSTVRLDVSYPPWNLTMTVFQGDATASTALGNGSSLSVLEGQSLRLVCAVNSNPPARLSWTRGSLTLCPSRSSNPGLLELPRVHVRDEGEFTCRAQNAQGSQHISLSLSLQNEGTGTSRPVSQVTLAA

Binder | binding [1] | binding [2]
HAKB (antibody, human IgG1, V domains shown) VH: EVQLVESGGGLVQPGGSLRLSCAASGFSLTIYGAHWVRQAPGKGLEWVSVIWAGGSTNYNSALMSRFTISKDNSKNTVYLQMNSLRAEDTAVYYCARDGSSPYYYSMEYWGQGTTVTVSS VL: EIILTQSPATLSLSPGERATLSCSATSSVSYMHWFQQKPGQAPRLWIYSTSNLASGVPARFSGSGSGTDYTLTISSLEPEDFAVYYCQQRSSYPFTFGPGTKLDIK | binds | –
HEKF IgG1 antibody (antibody, V domains shown) VH: EVQLVESGGGLVQPGGSLRLSCAASGFSLTIYGAHWVRQAPGKGLEWVGVIWAGGSTNYNSALMSRFTISKDNSKNTVYLQMNSLRAEDTAVYYCARDGSSPYYYSMEYWGQGTTVTVSS VL: EIVLTQSPATLSLSPGERATLSCSATSSVSYMHWFQQKPGQAPRLLIYSTSNLASGIPARFSGSGSGTDYTLTISSLEPEDFAVYYCQQRSSYPFTFGPGTKLDIKR | – | binds
HB2KG (antibody, V domains shown) VH: QVQLQESGPGLVKPSETLSLTCTVSGFSLTIYGAHWVRQPPGKGLEWLGVIWAGGSTNYNSALMSRLSISKDNSKNQVSLKLSSVTAADTAVYYCARDGSSPYYYSMEYWGQGTLVTVSS VL: EIVLTQSPATLSLSPGERATLSCSATSSVSYMHWYQQKPGQAPRLLIYSTSNLASGIPARFSGSGSGTDFTLTISSLEPEDFAVYYCQQRSSYPFTFGPGTKLDIK | binds | –
